{"sequences": {"note": "The chains behind the UniProt entries cited, without tags or fusion partners.", "UniProt P32598": "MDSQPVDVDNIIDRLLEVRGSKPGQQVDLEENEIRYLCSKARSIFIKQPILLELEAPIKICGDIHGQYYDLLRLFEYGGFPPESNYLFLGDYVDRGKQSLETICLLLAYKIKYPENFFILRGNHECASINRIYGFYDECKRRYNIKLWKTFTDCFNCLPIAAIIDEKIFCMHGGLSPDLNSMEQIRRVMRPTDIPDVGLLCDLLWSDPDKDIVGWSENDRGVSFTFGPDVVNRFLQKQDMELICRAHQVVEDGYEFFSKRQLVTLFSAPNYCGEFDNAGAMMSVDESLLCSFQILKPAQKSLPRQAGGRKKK"}, "source": "paper PMC10783616", "about": "(Molecular Cell, 2022)", "key": {"[1]": {"target": "Glc7 (yeast protein phosphatase 1), recombinant His10-SUMO-Glc7 (S. cerevisiae) (UniProt P32598)", "test": "SEC; 5 μM Glc7 with 10 μM Ref2 C-terminal truncations in 50 μl, Superdex 200 Increase 3.2/300; co-migration on SDS-PAGE (Figure S10A); both purified"}, "[2]": {"target": "Glc7 (yeast protein phosphatase 1), recombinant His10-SUMO-Glc7 (S. cerevisiae) (UniProt P32598)", "test": "crystal structure; chimeric protein Glc7–Ref2_(348-406)–GSGSG–2x(SPSYSPT) on one chain; 40 % 1,4-butanediol, 0.1 M Tris-HCl pH 8.5; 1.85 Å; both purified"}}, "note": "Results are given in words; binding and its absence hold for the method and conditions named. Some binding calls cover weakened binding; strength is not graded here.", "data": [{"binder": "Ref2 residues 348–406 (domain or fragment, UniProt P42073 348-406) ISVQDSNVQSILRNGKPKKARISSIKFLDDSQLIKVYGDDLSNQGLQVSPTQLKKILKP", "values": [{"measurement": "binding", "setting": "[1]", "result": "binds"}, {"measurement": "binding", "setting": "[2]", "result": "binds"}]}]}
